Test results taken from PMC4949242, “Conjugative DNA Transfer Is Enhanced by Plasmid R1 Partitioning Proteins”.
The exact form of at least one protein or probe is not confirmed. Weaker means in comparison with the reference protein, sequence or condition of that experiment. Where a protein sequence is shown, tags need not be part of it.

Molecular target: T1, ParR (Escherichia coli plasmid R1) (UniProt P11906)
T1 sequence (looked up, limits assumed): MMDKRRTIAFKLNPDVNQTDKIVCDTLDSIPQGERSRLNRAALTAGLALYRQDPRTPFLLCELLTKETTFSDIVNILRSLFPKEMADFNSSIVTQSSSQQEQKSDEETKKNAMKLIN
Experiment: EMSA
Settings: EMSA: 10 mM Tris-HCl pH 7.5, 50 mM NaCl, 0.005% NP-40, 1 mM DTT, 1 mM EDTA, 25 C, 20 min (DNA 20 nM in Methods, 4 nM in Fig 5 legend), recombinant protein, label: 3'-TAMRA on strand 1

| Sequence | binding result (shift required 40-fold molar excess of protein, nonspecific) | binding result (shift at amounts equivalent to oriT (40-fold excess)) |
| --- | --- | --- |
| ACCAAAAGCACCACACCCCACGCAAAAACAAG (double strand) [dsoriT] | binds more weakly | – |
| CGAACGAGCAGTTGTTTCAGCG (double strand) [dsrnd] | – | binds more weakly |
